Consider 1 molecule from article PMC9225994.

Protein sequences, listed by entry. Tags and fused reporters are not part of them. Lines headed by an entry give the natural chain unless they say otherwise; changes in a name come on top.
UniProt Q01094: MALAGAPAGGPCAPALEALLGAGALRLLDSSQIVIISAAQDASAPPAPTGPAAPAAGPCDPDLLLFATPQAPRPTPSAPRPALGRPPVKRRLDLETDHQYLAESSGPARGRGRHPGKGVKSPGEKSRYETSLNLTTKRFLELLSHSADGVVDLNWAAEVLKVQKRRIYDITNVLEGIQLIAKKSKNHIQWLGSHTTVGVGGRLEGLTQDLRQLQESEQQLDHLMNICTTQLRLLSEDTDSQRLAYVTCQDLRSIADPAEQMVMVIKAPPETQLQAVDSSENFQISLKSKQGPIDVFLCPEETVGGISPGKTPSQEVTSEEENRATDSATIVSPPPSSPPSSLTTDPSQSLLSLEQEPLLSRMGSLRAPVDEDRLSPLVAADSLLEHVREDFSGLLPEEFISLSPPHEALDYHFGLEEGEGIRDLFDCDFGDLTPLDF

The experiment addresses E2F complexes (E2F1 co-expressed with DP1) (UniProt Q01094). The experiment in a line: native gel or EMSA; nuclear extracts of Q2bn fibroblasts transfected with pCMV-E2F1, pCMV-DP1 and pcDNA3-CEBPE as indicated, 24 h; E2F probe derived from the DHFR promoter (and a CEBP probe); anti-CEBPE Ab (H-75). On the technique in general: A gel shift assay detects complexes by their altered migration in electrophoresis.

No constants are given. Whether binding was seen depends on the method and setting. Some binding calls cover weakened binding; strength is not graded here.

B1: CEBPE (CCAAT/enhancer-binding protein epsilon), full-length human (protein, UniProt Q15744 1-281)
chain: MSHGTYYECEPRGGQQPLEFSGGRAGPGELGDMCEHEASIDLSAYIESGEEQLLSDLFAVKPAPEARGLKGPGTPAFPHYLPPDPRPFAYPPHTFGPDRKALGPGIYSSPGSYDPRAVAVKEEPRGPEGSRAASRGSYNPLQYQVAHCGQTAMHLPPTLAAPGQPLRVLKAPLATAAPPCSPLLKAPSPAGPLHKGKKAVNKDSLEYRLRRERNNIAVRKSRDKAKRRILETQQKVLEYMAENERLRSRVEQLTQELDTLRNLFRQIPEAANLIKGVGGCS
In the case of B1, the binding entry is on record as “binds”.
